At least one compound was matched to its structure with a doubt left.
Target: T1, ACAT2 (Mus musculus, UniProt O88908)
T1 construct: The resulting sediment was collected as a murine hepatic microsome fraction; from tissue; host or cells: mouse liver (hepatic microsome fraction)
T1 sequence (O88908 1-525): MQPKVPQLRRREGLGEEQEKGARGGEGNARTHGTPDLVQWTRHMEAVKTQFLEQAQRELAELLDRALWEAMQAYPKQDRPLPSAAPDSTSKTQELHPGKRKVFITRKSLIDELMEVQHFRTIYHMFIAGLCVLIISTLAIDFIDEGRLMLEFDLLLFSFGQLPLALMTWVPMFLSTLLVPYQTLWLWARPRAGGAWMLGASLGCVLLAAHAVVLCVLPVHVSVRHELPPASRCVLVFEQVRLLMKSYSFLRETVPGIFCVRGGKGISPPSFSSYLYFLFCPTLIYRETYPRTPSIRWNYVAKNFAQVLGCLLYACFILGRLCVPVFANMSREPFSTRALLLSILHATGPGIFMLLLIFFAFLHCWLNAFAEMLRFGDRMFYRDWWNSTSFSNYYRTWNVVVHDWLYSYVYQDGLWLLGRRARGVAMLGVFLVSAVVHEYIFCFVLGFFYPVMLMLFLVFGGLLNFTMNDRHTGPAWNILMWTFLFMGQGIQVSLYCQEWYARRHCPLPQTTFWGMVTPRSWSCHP
Experiment: Test of inhibitory activity against ACAT2 (murine hepatic microsome, [1-14C]oleoyl coenzyme A)
Type: biochemical
Conditions: summary of Table 1
Protocol: The compounds produced in accordance with the procedure described above were tested concerning the inhibitory activity against ACAT2 in the manner described below.
The ACAT2 enzyme protein was extracted from the membrane fraction derived from the murine hepatic microsome. Mouse livers were homogenized in buffer A (50 mM Tris-HCl buffer (pH 7.8), 1 mM ethylenediaminetetraacetic acid, and 1 mM phenylmethanesulfonyl fluoride) using a Potter-type homogenizer (Tokyo-RIKO). The homogenate was centrifuged at 12,000×g, and the supernatant was subjected to ultracentrifugation at […]. The resulting sediment was collected as a murine hepatic microsome fraction, and this fraction was adjusted so as to have a protein concentration of 5 mg/ml using buffer A. Thus, an enzyme source of the ACAT2 enzyme protein was obtained.
ACAT2 activity was measured in the manner described below. […] The reaction solution was incubated at 37° C. for 5 minutes. […]
After the incubation, the reaction was terminated with the addition of 1.2 ml of a chloroform/methanol (1:2) solution to the reaction solution. […] Subsequently, [^14C] cholesteryl oleate separated on the TLC plate was quantified using FLA 7000 (Fuji Film). […] In quantification of the [^14C] cholesteryl oleate, the radioactivity of a TLC plate onto which no substance had been spotted was designated as the background level. […]

## CC(=O)OCC(COC(C)=O)[C@@H]1C[C@H](OC(=O)c2ccc(C#N)cc2)[C@@]2(C)Oc3cc(-c4cccnc4)oc(=O)c3[C@H](O)[C@@H]2C1(C)C [PT022, 2-((5aS,6S,8S,9aS,10R)-6-((4-cyanobenzoyl)oxy)-10-hydroxy-5a,9,9-trimethyl-1-oxo-3-(pyridin-3-yl)-1,5a,6,7,8,9,9a,10-octahydropyrano[4,3-b]chromen-8-yl)propane-1,3-diyl diacetate]
  degree of inhibitory activity against ACAT2 (in words, compared with pyripyropene A): substantially equivalent to that of pyripyropene A

— patent US9896456B2, “Pharmaceutical compound having inhibitory activity against cholesterol acyltransferase isozyme 2 (ACAT2)” (School Juridical Person Kitasato Institute, priority 2014, dated 2018)
